# From US20190314443A1, “COMPOSITION FOR SUPPRESSING MUSCULAR ATROPHY” (OTSUKA PHARMACEUTICAL CO., LTD., priority 2016, published 2019)
# Part of at least one peptide drawing is inferred or uncertain, most often the ends. Some compounds share one wording; it may come from a single statement. Peptide text beside a SMILES is read from it.
# How the values were obtained:
# [1] = test system: murine skeletal muscle cell line (C2C12); experiment: Suppression of dexamethasone-induced muscular atrophy in murine skeletal muscle cell line (myotube muscle diameter); assay type: cell-based; conditions: C2C12 myotubes, peptide 625 nM, 10 μM dexamethasone, 3 days; FIG. 1
# Atrogin-1 = experiment: Expression of Atrogin-1 protein in anterior tibial muscles in animal model; assay type: in vivo, C57BL/6J mice; conditions: mice, peptide 1.4 mg/ml in drinking water ad libitum 14 days, dexamethasone 10 mg/kg i.p. once a day for 7 days; FIG. 4
# [2] = test system: C57BL/6J mice with dexamethasone-induced muscular atrophy; experiment: Suppression of muscular atrophy in animal model: muscular fiber cross-sectional area (CSA) of anterior tibial muscles; assay type: in vivo; conditions: peptide 1.4 mg/ml in drinking water ad libitum 14 days, dexamethasone 10 mg/kg i.p. once a day for 7 days, FIG. 3
SMILES,muscle diameter vs. dexamethasone alone group [1],expression of Atrogin-1 protein in the anterior tibial muscles vs. atrophy group (Atrogin-1),CSA of the anterior tibial muscles vs. atrophy group [2]
CC[C@H](C)[C@H](NC(=O)[C@@H](N)CC(=O)O)C(=O)O [DI] (H-Asp-Ile-OH),significantly higher,,
CC[C@H](C)[C@H](NC(=O)[C@@H](N)CC(=O)O)C(=O)N[C@@H](Cc1ccc(O)cc1)C(=O)O [DIY] (H-Asp-Ile-Tyr-OH),significantly higher,,
NC(=O)CC[C@H](NC(=O)[C@@H]1CCCN1C(=O)[C@@H](N)CC(N)=O)C(=O)O [NPQ] (H-Asn-Pro-Gln-OH),significantly higher,,
CC[C@H](C)[C@H](N)C(=O)N[C@@H](Cc1ccccc1)C(=O)N[C@@H](CC(N)=O)C(=O)O [IFN] (H-Ile-Phe-Asn-OH),significantly higher,,
CC[C@H](C)[C@H](N)C(=O)N[C@@H](Cc1ccc(O)cc1)C(=O)O [IY] (H-Ile-Tyr-OH),significantly higher,,
NC(=O)C[C@H](NC(=O)[C@@H](N)Cc1ccc(O)cc1)C(=O)N1CCC[C@H]1C(=O)O [YNP] (H-Tyr-Asn-Pro-OH),significantly higher,,
CC[C@H](C)[C@H](N)C(=O)N[C@@H](Cc1ccc(O)cc1)C(=O)N[C@@H](CC(N)=O)C(=O)O [IYN] (H-Ile-Tyr-Asn-OH),significantly higher,,
N[C@@H](Cc1ccccc1)C(=O)N[C@@H](Cc1ccc(O)cc1)C(=O)O [FY] (H-Phe-Tyr-OH),showed a similar tendecy,,
NCCCC[C@H](NC(=O)[C@@H]1CCCN1C(=O)[C@@H](N)CC(N)=O)C(=O)O [NPK] (H-Asn-Pro-Lys-OH),significantly higher,,
CC[C@H](C)[C@H](NC(=O)[C@@H](N)CC(=O)O)C(=O)N[C@@H](Cc1ccccc1)C(=O)O [DIF] (H-Asp-Ile-Phe-OH),significantly higher,,
CC[C@H](C)[C@H](N)C(=O)N[C@@H](Cc1ccccc1)C(=O)O [IF] (H-Ile-Phe-OH),significantly higher,,
NC(=O)C[C@H](NC(=O)[C@@H](N)Cc1ccc(O)cc1)C(=O)O [YN] (H-Tyr-Asn-OH),significantly higher,,
NC(=O)C[C@H](NC(=O)[C@@H](N)Cc1ccccc1)C(=O)O [FN] (H-Phe-Asn-OH),significantly higher,tendency to be lower,significantly higher
NC(=O)C[C@H](NC(=O)[C@H](Cc1ccc(O)cc1)NC(=O)[C@@H](N)Cc1ccccc1)C(=O)O [FYN],significantly higher,,
N[C@@H](CC(=O)O)C(=O)N[C@@H](Cc1ccccc1)C(=O)O [DF] (H-Asp-Phe-OH),significantly higher,significantly lower,significantly higher
N[C@@H](CC(=O)O)C(=O)N[C@@H](Cc1ccccc1)C(=O)N[C@@H](Cc1ccc(O)cc1)C(=O)O [DFY] (H-Asp-Phe-Tyr-OH),significantly higher,,
NC(=O)C[C@H](NC(=O)[C@@H](N)Cc1ccccc1)C(=O)N1CCC[C@H]1C(=O)O [FNP] (H-Phe-Asn-Pro-OH),significantly higher,,
